This passage reports binding results from article doi:10.1101/2020.04.20.050120.

Chains of the proteins cited; added tags and fusions are not shown.
UniProt P08047: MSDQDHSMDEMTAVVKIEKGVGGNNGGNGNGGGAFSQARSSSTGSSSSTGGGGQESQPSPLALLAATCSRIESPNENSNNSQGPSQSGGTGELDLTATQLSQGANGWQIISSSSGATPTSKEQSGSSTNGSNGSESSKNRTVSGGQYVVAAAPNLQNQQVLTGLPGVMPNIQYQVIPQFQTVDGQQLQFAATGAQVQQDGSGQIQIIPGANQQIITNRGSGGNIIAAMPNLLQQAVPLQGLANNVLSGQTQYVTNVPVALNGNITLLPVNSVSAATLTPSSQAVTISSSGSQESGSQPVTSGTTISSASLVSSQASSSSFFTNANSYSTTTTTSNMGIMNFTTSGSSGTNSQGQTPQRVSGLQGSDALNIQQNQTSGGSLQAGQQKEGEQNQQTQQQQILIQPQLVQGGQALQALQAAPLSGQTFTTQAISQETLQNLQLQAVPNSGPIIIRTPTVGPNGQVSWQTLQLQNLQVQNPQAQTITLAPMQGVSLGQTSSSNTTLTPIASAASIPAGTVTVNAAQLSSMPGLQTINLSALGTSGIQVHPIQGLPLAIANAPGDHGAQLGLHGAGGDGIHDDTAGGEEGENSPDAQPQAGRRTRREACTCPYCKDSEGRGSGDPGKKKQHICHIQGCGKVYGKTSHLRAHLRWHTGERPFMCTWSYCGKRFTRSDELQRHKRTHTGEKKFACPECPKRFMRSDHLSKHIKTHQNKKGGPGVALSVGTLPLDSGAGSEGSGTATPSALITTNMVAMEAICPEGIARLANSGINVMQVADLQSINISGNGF
UniProt Q09472: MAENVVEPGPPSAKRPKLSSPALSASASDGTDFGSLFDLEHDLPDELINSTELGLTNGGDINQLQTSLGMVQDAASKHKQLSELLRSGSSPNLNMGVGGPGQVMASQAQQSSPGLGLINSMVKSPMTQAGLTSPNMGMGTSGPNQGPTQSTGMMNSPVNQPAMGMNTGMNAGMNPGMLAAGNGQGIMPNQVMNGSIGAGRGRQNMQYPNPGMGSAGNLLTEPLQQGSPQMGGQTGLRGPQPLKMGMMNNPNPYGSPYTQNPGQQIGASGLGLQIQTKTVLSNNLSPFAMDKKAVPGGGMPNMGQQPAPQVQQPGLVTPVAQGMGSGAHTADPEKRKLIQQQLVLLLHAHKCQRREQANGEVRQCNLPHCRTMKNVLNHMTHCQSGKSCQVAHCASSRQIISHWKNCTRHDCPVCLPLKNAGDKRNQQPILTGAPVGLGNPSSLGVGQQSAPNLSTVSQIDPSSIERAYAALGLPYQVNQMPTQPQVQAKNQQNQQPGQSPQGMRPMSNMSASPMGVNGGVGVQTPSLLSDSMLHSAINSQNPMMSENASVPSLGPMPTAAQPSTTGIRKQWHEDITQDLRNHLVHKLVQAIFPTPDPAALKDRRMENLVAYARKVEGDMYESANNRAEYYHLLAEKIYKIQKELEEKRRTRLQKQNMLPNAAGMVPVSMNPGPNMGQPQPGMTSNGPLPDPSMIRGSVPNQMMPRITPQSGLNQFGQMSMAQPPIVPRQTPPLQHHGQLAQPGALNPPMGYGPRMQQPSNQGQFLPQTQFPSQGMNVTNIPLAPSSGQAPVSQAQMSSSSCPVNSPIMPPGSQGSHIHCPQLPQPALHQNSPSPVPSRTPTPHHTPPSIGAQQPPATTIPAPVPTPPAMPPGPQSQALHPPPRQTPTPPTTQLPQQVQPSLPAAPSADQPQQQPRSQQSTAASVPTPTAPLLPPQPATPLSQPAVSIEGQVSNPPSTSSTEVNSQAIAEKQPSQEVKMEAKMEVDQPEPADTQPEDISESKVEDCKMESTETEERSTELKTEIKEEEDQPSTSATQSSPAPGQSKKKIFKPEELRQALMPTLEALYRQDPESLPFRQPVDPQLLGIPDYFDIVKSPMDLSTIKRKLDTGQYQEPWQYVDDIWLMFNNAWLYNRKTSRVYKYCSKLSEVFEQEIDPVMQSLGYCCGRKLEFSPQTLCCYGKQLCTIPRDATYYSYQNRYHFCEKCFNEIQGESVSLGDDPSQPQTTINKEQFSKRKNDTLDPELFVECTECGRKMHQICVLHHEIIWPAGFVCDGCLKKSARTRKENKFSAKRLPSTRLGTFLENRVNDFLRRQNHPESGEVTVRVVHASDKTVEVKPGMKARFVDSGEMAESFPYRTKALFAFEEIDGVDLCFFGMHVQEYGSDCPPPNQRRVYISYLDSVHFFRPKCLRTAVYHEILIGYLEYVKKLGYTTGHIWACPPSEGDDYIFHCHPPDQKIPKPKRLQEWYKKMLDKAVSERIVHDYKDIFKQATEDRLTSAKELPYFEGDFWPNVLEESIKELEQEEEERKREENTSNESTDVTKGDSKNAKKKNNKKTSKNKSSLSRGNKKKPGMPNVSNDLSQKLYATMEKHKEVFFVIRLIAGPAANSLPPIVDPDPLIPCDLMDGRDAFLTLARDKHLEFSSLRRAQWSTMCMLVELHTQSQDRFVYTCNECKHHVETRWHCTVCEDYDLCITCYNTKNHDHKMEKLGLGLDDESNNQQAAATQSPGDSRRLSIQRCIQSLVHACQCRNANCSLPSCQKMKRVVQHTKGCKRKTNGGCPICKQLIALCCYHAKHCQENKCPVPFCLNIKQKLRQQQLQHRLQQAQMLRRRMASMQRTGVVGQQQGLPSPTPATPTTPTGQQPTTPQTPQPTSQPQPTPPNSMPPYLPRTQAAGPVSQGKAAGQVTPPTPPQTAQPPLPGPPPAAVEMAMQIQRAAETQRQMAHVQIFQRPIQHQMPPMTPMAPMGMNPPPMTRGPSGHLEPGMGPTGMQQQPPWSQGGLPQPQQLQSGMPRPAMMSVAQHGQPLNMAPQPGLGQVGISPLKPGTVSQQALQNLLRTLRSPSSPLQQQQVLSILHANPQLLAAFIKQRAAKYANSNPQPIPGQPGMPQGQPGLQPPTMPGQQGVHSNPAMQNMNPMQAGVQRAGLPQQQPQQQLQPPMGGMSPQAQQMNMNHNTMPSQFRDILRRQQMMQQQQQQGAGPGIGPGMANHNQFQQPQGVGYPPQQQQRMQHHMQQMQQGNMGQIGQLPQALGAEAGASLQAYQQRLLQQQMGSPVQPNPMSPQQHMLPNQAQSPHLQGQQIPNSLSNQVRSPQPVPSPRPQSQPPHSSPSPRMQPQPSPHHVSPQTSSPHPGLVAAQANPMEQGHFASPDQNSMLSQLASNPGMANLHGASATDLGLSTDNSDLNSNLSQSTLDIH
UniProt Q96KQ7: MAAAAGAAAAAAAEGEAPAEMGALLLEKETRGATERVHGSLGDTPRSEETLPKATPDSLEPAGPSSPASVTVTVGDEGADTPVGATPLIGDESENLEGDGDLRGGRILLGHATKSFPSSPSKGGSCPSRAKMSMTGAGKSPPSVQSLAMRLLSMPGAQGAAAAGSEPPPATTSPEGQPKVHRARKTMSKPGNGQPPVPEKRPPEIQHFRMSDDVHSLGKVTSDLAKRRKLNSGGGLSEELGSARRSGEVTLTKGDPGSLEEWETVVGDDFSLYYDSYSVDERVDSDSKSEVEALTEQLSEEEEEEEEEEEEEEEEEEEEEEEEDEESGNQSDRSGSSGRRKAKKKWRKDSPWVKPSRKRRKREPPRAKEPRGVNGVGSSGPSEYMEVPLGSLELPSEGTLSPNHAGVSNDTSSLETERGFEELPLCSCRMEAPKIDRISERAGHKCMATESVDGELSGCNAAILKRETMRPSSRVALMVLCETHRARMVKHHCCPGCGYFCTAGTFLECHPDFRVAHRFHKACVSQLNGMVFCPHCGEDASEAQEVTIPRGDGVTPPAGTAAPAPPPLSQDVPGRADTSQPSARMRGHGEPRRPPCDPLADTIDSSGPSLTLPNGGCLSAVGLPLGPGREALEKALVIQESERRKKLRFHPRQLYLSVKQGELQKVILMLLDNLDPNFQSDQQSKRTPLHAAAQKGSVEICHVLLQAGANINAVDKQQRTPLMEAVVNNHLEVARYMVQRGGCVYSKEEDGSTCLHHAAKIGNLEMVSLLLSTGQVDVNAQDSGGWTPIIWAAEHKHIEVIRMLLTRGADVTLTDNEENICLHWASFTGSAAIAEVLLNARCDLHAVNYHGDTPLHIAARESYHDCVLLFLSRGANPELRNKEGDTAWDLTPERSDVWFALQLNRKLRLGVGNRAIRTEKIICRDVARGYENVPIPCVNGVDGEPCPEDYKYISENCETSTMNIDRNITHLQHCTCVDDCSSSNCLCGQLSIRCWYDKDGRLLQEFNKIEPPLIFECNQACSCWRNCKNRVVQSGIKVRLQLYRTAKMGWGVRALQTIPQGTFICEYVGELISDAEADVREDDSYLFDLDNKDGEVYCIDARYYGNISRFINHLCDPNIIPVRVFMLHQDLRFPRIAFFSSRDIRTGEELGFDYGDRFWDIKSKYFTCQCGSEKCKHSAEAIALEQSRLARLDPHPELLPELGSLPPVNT

Assay [1] deals with Sp1 (human (endogenous in ERMS cell lines)) (UniProt P08047). The experiment in a line: proximity ligation.
The target of assay [2] is p300 (human (endogenous in ERMS cell lines)) (UniProt Q09472). Put plainly: proximity ligation.

Results are given in words; binding and its absence hold for the method and conditions named. In cells and extracts the contact can be indirect. Some binding calls cover weakened binding; strength is not graded here.

On to “G9a (from UniProt Q96KQ7 1-1210) (enzyme)”, for which the binding result in assay [1] and in assay [2] was “binds” in each case.
